Reference: PubChem BioAssay AID1671190 (National Center for Advancing Translational Sciences (NCATS), 2021)
Several values for one entry are separate records, joined by “and”; a condition that tells them apart may be missing. Identical values can stand only once. Screen size: about 580,000 compounds; about 6,100 (1.1%) were called active. This list was built around the results that the source calls inconclusive (neither active nor inactive); the mix of calls is not that of the screen. Calls follow the shape of the dose curve; as a rule, active = well fitted inhibition curve with a large enough effect; inconclusive = small, poorly fitted or top-dose-only effect, or another doubt; inactive = no such curve, though single readings can be large or run the other way. Potencies beside an inconclusive call are fits to weak or partial responses and may not hold up.

By UniProt entry, the sequences of proteins in these tests, tags left out. Where a name states a change or a piece, a line headed by the entry shows the natural chain unless it says otherwise.
UniProt P18054: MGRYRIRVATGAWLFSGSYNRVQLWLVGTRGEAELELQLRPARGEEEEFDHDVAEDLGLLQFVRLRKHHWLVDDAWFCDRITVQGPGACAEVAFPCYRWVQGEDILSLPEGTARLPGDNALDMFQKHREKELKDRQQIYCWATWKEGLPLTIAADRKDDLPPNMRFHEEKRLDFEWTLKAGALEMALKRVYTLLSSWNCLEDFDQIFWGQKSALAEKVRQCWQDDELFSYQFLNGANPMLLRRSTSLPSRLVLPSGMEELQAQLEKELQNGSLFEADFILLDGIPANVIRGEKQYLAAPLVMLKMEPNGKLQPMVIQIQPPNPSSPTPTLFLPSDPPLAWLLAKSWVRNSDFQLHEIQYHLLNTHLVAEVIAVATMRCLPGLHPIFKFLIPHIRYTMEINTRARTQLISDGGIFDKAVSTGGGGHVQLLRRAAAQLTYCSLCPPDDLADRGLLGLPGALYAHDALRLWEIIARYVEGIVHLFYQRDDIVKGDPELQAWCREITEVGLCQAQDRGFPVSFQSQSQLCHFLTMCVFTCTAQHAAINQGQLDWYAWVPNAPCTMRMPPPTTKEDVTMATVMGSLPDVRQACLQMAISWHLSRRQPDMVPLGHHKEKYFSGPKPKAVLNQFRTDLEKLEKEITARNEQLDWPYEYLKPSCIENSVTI

target: Polyunsaturated fatty acid lipoxygenase ALOX12 (Homo sapiens) (UniProt P18054); assay: Primary qHTS assay for inhibitors of human arachidonate 12S-lipoxygenase (ALOX12): Round 2; settings: purified 12hLO, xylenol orange hydroperoxide absorbance; activity change, negative = inhibition: at 108 µM (top of the series) unless noted
Summary of the method: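 Purified human 12hLO (150 nM final) in 25 mM Hepes, 0.01% Triton X-100, pH 7.0 was preincubated 15 min at room temperature with compound. Then 40 uM arachidonic acid was added, 30 min. Hydroperoxide was read by Fe-XO absorbance ratio 573/405 nm.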
% is scaled to controls: 0 for no effect and ±100 for the full control effect; potency is read from the fitted curve at half-maximal effect.

Structure (SMILES)	Potency	activity change, negative = inhibition
Cc1ccc(C(=O)c2sc(Nc3cccc(F)c3)nc2N)c(C)c1	inconclusive: 112 µM [inhibitor, single point]	
CC(=O)NC1(C)CCCN(c2ccc(OC(F)(F)F)cc2)C1 (stereo unspecified)		inactive: -18.4% [at 176 µM]
CNC[C@H]1Oc2c(NC(=O)c3ccc(-c4nccs4)cc3)cccc2C(=O)N([C@@H](C)CO)C[C@@H]1C	inconclusive: 50.1 µM [inhibitor, partial curve, poor fit]	
Cc1oc(-c2ccc(Cl)cc2)nc1CS(=O)CC(=O)NCCN1CCCCCC1 (stereo unspecified)	inconclusive: 15.8 µM [inhibitor, full curve, poor fit]	
Cc1ccc2nc(CSc3nnc(N4CCCC4)n3-c3cccc(Cl)c3)cn2c1	inconclusive: 44.7 µM [inhibitor, single point]	
CN(C)CCN(Cc1ccco1)C(=O)c1oc2ccccc2c1NC(=O)COc1ccccc1	inconclusive: 141 µM [inhibitor, single point]	
COc1ccc2c(c1)CNC2CS(=O)(=O)NCCc1ccccc1 (stereo unspecified)	inconclusive: 50.1 µM [inhibitor, partial curve, poor fit]	
Cn1cnc2c1c(=O)n(CCCn1nnc(-c3ccccc3)n1)c(=O)n2C	inconclusive: 224 µM [inhibitor, partial curve, poor fit]	
O=C(CCC1CCCCC1)Nc1ccc(Nc2ccccc2)cc1	inconclusive: 7.08 µM [inhibitor, full curve]	
COC(=O)c1cc(C(=O)NCC2CCCCC2)cc([N+](=O)[O-])c1	inconclusive: 100 µM [inhibitor, partial curve, poor fit]	
S=C(NCc1ccccn1)Nc1cccc(Cl)c1	inconclusive: 112 µM [inhibitor, single point]	
Cc1noc(/C=C/N(C)C)c1S(=O)(=O)N1CCCC(C(=O)Nc2ccc(F)cc2F)C1 (stereo unspecified)	inconclusive: 100 µM [inhibitor, partial curve, poor fit]	
CCC(CC)C(=O)Nc1ccc(C)c(C)c1		inactive: 23.5%
CCc1cc2cc3c(cc2nc1SCC(=O)Nc1cc(C)on1)OCO3	inconclusive: 89.1 µM [inhibitor, partial curve, poor fit]	
CCCCn1nnnc1SCC(=O)c1ccc(C)c(C)c1	inconclusive: 25.1 µM [inhibitor, partial curve, poor fit]	
O=C(O)c1cccc(N2CCCC2)c1	inconclusive: 44.7 µM [inhibitor, single point]	
COc1ccc(NC(C)C(=O)N/N=C/c2ccccc2OCc2cccc(Br)c2)cc1 (stereo unspecified)		inactive: -2.34%
CC(C)c1noc(CCCC(=O)Nc2ccccc2OC2CCCC2)n1		inactive: -5.72%
CCc1ccc(-c2cc(C(=O)Nc3c(C)n(C)n(-c4ccccc4)c3=O)c3ccccc3n2)s1	inconclusive: 50.1 µM [inhibitor, partial curve, poor fit]	
CC(C)NCCCOc1ccc(C(C)(C)c2ccccc2)cc1	inconclusive: 1.12 µM [inhibitor, full curve, poor fit]	
COc1ccccc1/C=C/C(=O)c1ccc(Cl)cc1		inactive: 3.36%
Cc1ccc(-c2csc(Nc3ccccn3)n2)c(C)c1	inconclusive: 31.6 µM [inhibitor, partial curve, poor fit]	

Structure (SMILES)	Potency	activity change, negative = inhibition
COC(=O)c1ccc(NC(=O)CSc2ccccn2)cc1	inconclusive: 158 µM [inhibitor, partial curve, poor fit]	
COC(=O)c1ccc(/C=C2\N=C(SC)SC2=O)cc1		inactive: -12.3%
Cc1ccsc1/C=N/NC(=O)c1cccc2ccccc12		inactive: 24.9%
O=C(/C=C/c1ccccc1)Nc1ccc(OCCc2ccccc2)cc1	inconclusive: 44.7 µM [inhibitor, single point]	
CCc1ccc(NC(=O)c2ccc(-n3cncn3)c([N+](=O)[O-])c2)cc1	inconclusive: 56.2 µM [inhibitor, partial curve, poor fit]	
CCOc1ccc(NC(=O)Nc2ccc(F)c(-c3nnc(-c4ccccc4)o3)c2)cc1		inactive: 3.91%
Cc1ccc(CN2CCC3(C2)NC(=O)c2ccccc2CO3)cc1 (stereo unspecified)	inconclusive: 22.4 µM [inhibitor, full curve]	
Cc1nc2nc(N(Cc3ccc(F)cc3)C(=O)c3ccco3)[nH]n2c(=O)c1Cc1ccccc1	inconclusive: 39.8 µM [inhibitor, partial curve, poor fit]	
COc1ccc(Br)cc1CN(C)C(=O)Cc1ccc(OC)c(S(=O)(=O)N2CCOCC2)c1		inactive: 0%
CCCCn1c(NC(=S)Nc2ccccc2)nc2ccccc21	active: 17.8 µM	
C/C(=C\c1ccco1)C1C(C#N)=C(N)OC2=C1C(=O)CC(C)(C)C2 (stereo unspecified)	inconclusive: 50.1 µM [inhibitor, partial curve, poor fit]	
Cc1oc(-c2cccc3ccccc23)nc1CN1CCN(c2ncnc3ccccc23)CC1		inactive: -8.76%
O=C(c1ccc(C(F)(F)F)cc1)N1CCC(c2nn(-c3ccccc3)c(=O)[nH]2)CC1	inconclusive: 50.1 µM [inhibitor, partial curve]	
Cc1cccc(C(CC(=O)Nc2cccc(-c3ccno3)c2)n2cccc2)c1 (stereo unspecified)	inconclusive: 35.5 µM [inhibitor, partial curve, poor fit]	
CCC1NC(=O)c2cc3ccccc3cc2-n2c1nc1cc(C)cc(C)c1c2=O (stereo unspecified)		inactive: 5.61%
CC(=O)C1=C(O)C(=O)N(c2ccc(Br)cc2)C1c1ccccc1[N+](=O)[O-] (stereo unspecified)	inconclusive: 39.8 µM [inhibitor, partial curve, poor fit]	
Cc1cnc(C)c(-c2cccc3c2OC(CNC(=O)C[C@@H]2C[C@@H](C)NC(=S)N2)C3)n1 (stereo partly specified)		inactive: -23.1%
O=C(O)c1cccc(NC(=O)c2cccc(S(=O)(=O)N3CCCCC3)c2)c1		inactive: -0.258%
COc1cc(Nc2ncc(F)c(Nc3ccc4c(n3)NC(=O)C(C)(C)O4)n2)cc(OC)c1OC	inconclusive: 43.2 µM [inhibitor, single point]	
Cc1cccc(S(=O)(=O)NC(=O)C2(C)CCN2C(=O)C/C=C/c2ccccc2)c1 (stereo unspecified)	inconclusive: 15.8 µM [inhibitor, full curve]	
CCOC(=O)c1c(-c2ccccc2)csc1NC(=O)c1nc(S(=O)(=O)CC)ncc1Cl		inactive: -10.8%
Cc1ccc(NC(=O)C2CCN(c3nc4ccccc4o3)CC2)c(O)c1		inactive: 7.56%

Structure (SMILES)	Potency	activity change, negative = inhibition
O=C(c1c(F)cccc1F)N1CCC2(CC1)NC(=O)N(Cc1ccc(F)cc1)C2=O		inactive: 10.7%
COCC(C)N=C1NN=C(c2cccs2)C(CC(=O)O)S1 (stereo unspecified)	inconclusive: 63.1 µM [inhibitor, partial curve, poor fit]	
CCCCn1cnc2c(SCc3ccc(Br)cc3)nc(N)nc21		inactive: -23.1%
O=C(CNC(=O)c1ccccc1)N=Nc1c(O)[nH]c2ccc(Br)cc12	inconclusive: 100 µM [inhibitor, partial curve, poor fit]	
COc1ccc2c(c1)c1c(n2C)[C@@H]2CC=C(CO)[C@@H](C1)N2C	inconclusive: 39.8 µM [inhibitor, partial curve]	
O=c1[nH]c2ccc(Cl)cc2c(-c2ccccc2)c1CN1CCOCC1	inconclusive: 44.7 µM [inhibitor, partial curve, poor fit]	
COc1cccc(-c2ccc3ncnc(NCc4ccc(OC)cc4OC)c3c2)c1	inconclusive: 20 µM [inhibitor, partial curve, poor fit]	
C[C@@H]1CN([C@H](C)CO)C(=O)c2cc(NS(=O)(=O)c3cn(C)cn3)ccc2O[C@H]1CN(C)C(=O)Nc1ccccc1	inconclusive: 3.16 µM [inhibitor, full curve, poor fit]	
Cn1cnc(S(=O)(=O)N2C[C@@H](Oc3ccccc3)C[C@H]2C(=O)N2CCOCC2)c1	inconclusive: 35.5 µM [inhibitor, partial curve, poor fit]	
Cc1ccccc1-n1c(=O)cc(N2CCc3ccccc32)[nH]c1=O		inactive: -15.4%
CC(=O)c1ccc(NC(=O)Nc2nnc(N3CCCC(C)C3)s2)cc1 (stereo unspecified)	inconclusive: 126 µM [inhibitor, single point]	
CCOc1cc(Br)c(C2C(C#N)=C(N)Oc3cc4c(cc32)OCO4)cc1OCC (stereo unspecified)	inconclusive: 5.62 µM [inhibitor, partial curve, poor fit]	
COc1cc(OC)cc(C(=O)NCCN2C(=O)S/C(=C\c3cccs3)C2=O)c1	inconclusive: 4.47 µM [inhibitor, full curve, poor fit]	
Cc1ccc(NC(=O)c2cc(-c3ccc(C)o3)nc3ccccc23)cc1	active: 2.82 µM and active: 4.47 µM	
C=CCNC(=O)CN(Cc1ccccc1)S(=O)(=O)c1ccccc1	inconclusive: 89.1 µM [inhibitor, single point]	
Cc1ccc(C(=O)Nc2ccc3c(c2)C(=O)NC3=O)cc1	inconclusive: 100 µM [inhibitor, single point]	
O=c1c(-c2ccc(Cl)cc2)[n+]([O-])c2ccccc2n1O	inconclusive: 4.47 µM [inhibitor, single point]	
Cc1ccc(C(=O)Nc2nc(C)c(C(=O)Nc3ccc4c(c3)CCC4)s2)cc1	inconclusive: 50.1 µM [inhibitor, partial curve, poor fit]	
Nc1cc(=O)nc(SCC(=O)Nc2cccc(Cl)c2)n1CCc1ccccc1	inconclusive: 158 µM [inhibitor, partial curve, poor fit]	
CCCc1cc2c(=O)c(-c3ccc4c(c3)OCCCO4)coc2cc1OS(C)(=O)=O		inactive: -1.21%
COc1ccc(CNC(=O)c2scnc2C)cc1		inactive: 0.274%
O=C(Cn1cnc2ccccc21)Nc1ccc2c(c1)OCCCO2		inactive: 0%
